{"source": "the supplement of paper PMC11006884", "note": "This is a selection; strong and weak results do not stand in their true shares.", "data": [{"compound": "COC(=O)C#Cc1ccccc1 [methyl 3-phenylpropiolate]", "assay": "log2 ratio of iodoacetamide-alkyne labeling of the cysteine site, DMSO over compound (competition); higher = stronger covalent engagement of the cysteine by the compound, active = 1 or more", "details": "500 µM; treatment time 1 h; system: HEK293T cell lysate", "outline": "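Three replicates, each with duplicate channels, were prepared from HEK293T lysate (2 mg/mL) treated with vehicle or electrophile at 500 µM for 1 h at ambient temperature. Iodoacetamide alkyne was then applied for 1 h, and samples were clicked to sCIP-TMT reagents, pooled, trypsin-digested overnight at 37 °C, enriched on streptavidin, acid-eluted and analysed on Orbitrap Eclipse LC-MS/MS with FAIMS, with FragPipe quantification. The log2 competition ratio per cysteine is the mean control-channel divided by the mean compound-channel reporter intensity. Cysteines quantified in only one replicate were left out.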", "values": [{"target": "XRCC5 C339 (UniProt P13010)", "log2 ratio of iodoacetamide-alkyne labeling": "inactive: 0.156"}, {"target": "CKMT1A C76 (UniProt P12532)", "log2 ratio of iodoacetamide-alkyne labeling": "inactive: -0.206"}, {"target": "AKR1B1 C299 (UniProt P15121)", "log2 ratio of iodoacetamide-alkyne labeling": "inactive: 0.135"}, {"target": "ALAS1 C249 (UniProt P13196)", "log2 ratio of iodoacetamide-alkyne labeling": "inactive: 0.343"}, {"target": "ACAA1 C123 (UniProt P09110)", "log2 ratio of iodoacetamide-alkyne labeling": "inactive: -0.0075"}, {"target": "RPS2 C229 (UniProt P15880)", "log2 ratio of iodoacetamide-alkyne labeling": "inactive: 0.868"}, {"target": "UniProt P10155_C71", "log2 ratio of iodoacetamide-alkyne labeling": "inactive: 0.136"}, {"target": "HSPD1 C447 (UniProt P10809)", "log2 ratio of iodoacetamide-alkyne labeling": "inactive: 0.203"}, {"target": "NME1 C145 (UniProt P15531)", "log2 ratio of iodoacetamide-alkyne labeling": "inactive: -0.0228"}, {"target": "TOP2A C455 (UniProt P11388)", "log2 ratio of iodoacetamide-alkyne labeling": "inactive: 0.415"}, {"target": "PRKCSH C500 (UniProt P14314)", "log2 ratio of iodoacetamide-alkyne labeling": "inactive: 0.513"}, {"target": "HSP90AA1 C598 (UniProt P07900)", "log2 ratio of iodoacetamide-alkyne labeling": "inactive: -0.0866"}, {"target": "XRCC5 C296 (UniProt P13010)", "log2 ratio of iodoacetamide-alkyne labeling": "inactive: 0.00146"}, {"target": "ACTN1 C480 (UniProt P12814)", "log2 ratio of iodoacetamide-alkyne labeling": "inactive: -0.697"}, {"target": "UniProt P0DMV8_C306", "log2 ratio of iodoacetamide-alkyne labeling": "inactive: -0.0873"}, {"target": "U2AF1L5 C154 (UniProt P0DN76)", "log2 ratio of iodoacetamide-alkyne labeling": "inactive: -0.16"}, {"target": "CAPN2 C301 (UniProt P17655)", "log2 ratio of iodoacetamide-alkyne labeling": "active: 2.17"}, {"target": "ACADM C159 (UniProt P11310)", "log2 ratio of iodoacetamide-alkyne labeling": "inactive: 0.666"}, {"target": "EEF2 C693 (UniProt P13639)", "log2 ratio of iodoacetamide-alkyne labeling": "inactive: 0.0212"}, {"target": "FAH C105 (UniProt P16930)", "log2 ratio of iodoacetamide-alkyne labeling": "inactive: 0.289"}, {"target": "RNH1 C409 (UniProt P13489)", "log2 ratio of iodoacetamide-alkyne labeling": "inactive: 0.0147"}, {"target": "RNH1 C30 (UniProt P13489)", "log2 ratio of iodoacetamide-alkyne labeling": "inactive: 0.06"}]}]}
